Taken from: PubChem BioAssay AID686943 (Drosophila RNAi Screening Center, 2013)

- Test: 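Knockdowns that increase or decrease active ERK after insulin receptor stimulation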 (primary screen)
- Cell system: Drosophila S2R+ haemocyte-like cells expressing YFP-tagged ERK (Rolled)
- Knock-down reagent: long dsRNA against Drosophila genes
- Challenge: insulin stimulation versus unstimulated cells; dose and duration not given
- Measurement: 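Antibody staining for doubly phosphorylated ERK divided by ERK-YFP signal, as plate z-scores, in insulin-treated and untreated cells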
- Direction: replicate 1, z-score of dpERK with insulin and replicate 2, z-score of dpERK with insulin: higher = more active ERK per ERK-YFP after insulin; replicate 1, z-score of dpERK under basal conditions: higher = more basal active ERK per ERK-YFP; replicate 1, z-score of ERK-YFP with insulin: higher = more YFP-tagged ERK signal
In all, the deposit lists about 23,000 reagents; below is a random part of those that have a named target and a result. 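Extra replicates exist only for a retested subset of genes; insulin dose and duration not given; both raised and lowered dpERK matter.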 The record does not give: the amount of reagent, the time to read-out.

| gene knocked down | DRSC id | replicate 1, z-score of dpERK with insulin | replicate 2, z-score of dpERK with insulin | replicate 1, z-score of dpERK under basal conditions | replicate 1, z-score of ERK-YFP with insulin |
| --- | --- | --- | --- | --- | --- |
| RpL13 (GeneID 34329) | DRSC03416 | -0.26 | -3.25 | -0.61 | -6.37 |
| Dh31-R (GeneID 36475) | DRSC06647 | -0.27 | 0.23 | -0.09 | 0.53 |
| Dh31-R (GeneID 36475) | DRSC06669 | -0.59 | 0.51 | -0.95 | 0.15 |
| Npc2e (GeneID 326136) | DRSC15522 | 0.97 | -0.22 | 0.72 | -0.34 |
| Npc2e (GeneID 326136) | DRSC22338 | 0.24 | 0.68 | 1.36 | 0.47 |
| CG15022 (GeneID 38549) | DRSC08476 | -2.81 | -1.55 | 0.73 | 1.55 |
| Trf2 (GeneID 31773) | DRSC18727 | 0.15 | -1.18 | -3.23 | 2.83 |
| CG34241 (GeneID 5740575) | DRSC09157 | 1.23 | 0.16 | 0.83 | -0.25 |
| Lipt1 (GeneID 36795) | DRSC05600 | -0.46 | 0.08 | -1.47 | 0.19 |
| Capr (GeneID 59172) | DRSC10346 | 2.34 | -0.1 | 0.76 | -0.69 |
| wupA (GeneID 32794) | DRSC20385 | 0.6 | 0.31 | -0.34 | -0.13 |
| wupA (GeneID 32794) | DRSC22547 | 0.41 | 1.01 | -0.84 | 0.36 |
| Ac78C (GeneID 40333) | DRSC11467 | -0.11 | 0.77 | 0.55 | 0.08 |
| Ac78C (GeneID 40333) | DRSC11602 | -0.61 | 1.06 | 0.73 | 0.29 |
| Ac78C (GeneID 40333) | DRSC11619 | 0.86 | 0.42 | 0.05 | -0.93 |
| Efr (GeneID 31553) | DRSC18322 | 0.06 | -0.09 | -0.29 | -0.11 |
| CG2852 (GeneID 37591) | DRSC04321 | -0.13 | -0.34 | 0 | 0.48 |
| comt (GeneID 47091) | DRSC20319 | 0.28 | 0.05 | -1.1 | -0.24 |
| CG31128 (GeneID 318601) | DRSC13675 | 0.31 | -0.05 | 0.99 | -0.29 |
| CG9917 (GeneID 32596) | DRSC20218 | 0.2 | 0.57 | -0.17 | 0.18 |
| CG42237 (GeneID 32261) | DRSC19891 | 0.87 | 0.52 | 0.11 | -0.32 |
| CG14194 (GeneID 32908) | DRSC19549 | -1.6 | -0.51 | -0.41 | 1.37 |
| Mat1 (GeneID 36130) | DRSC07465 | 0.42 | 0.07 | -0.46 | 0.83 |
| Hph (GeneID 40633) | DRSC12164 | -0.57 | -0.02 | -0.35 | -0.42 |
| Hph (GeneID 40633) | DRSC12251 | -0.85 | 0.99 | -0.38 | 1.03 |
| Hph (GeneID 40633) | DRSC21876 | 0.24 | 2.06 | 0.71 | -0.08 |
| PIG-S (GeneID 42979) | DRSC14643 | -0.34 | -0.31 | 0.52 | 0.19 |
| PIG-S (GeneID 42979) | DRSC15388 | 0.7 | 0.61 | -0.19 | -0.49 |
| PIG-S (GeneID 42979) | DRSC15952 | 0.24 | 0.2 | -0.96 | 0.48 |
| cactin (GeneID 33043) | DRSC20576 | 2.32 | 1.56 | 0.54 | -0.62 |
| CG13102 (GeneID 34228) | DRSC02202 | 1.33 | 1.05 | -0.01 | 1.17 |
| da (GeneID 34413) | DRSC03517 | -0.33 | -0.63 | -0.17 | 0.24 |
| CG3511 (GeneID 37926) | DRSC04382 | 0.31 | 1 | -0.13 | -0.2 |
| CG4957 (GeneID 34374) | DRSC02793 | -0.19 | 0.06 | 1.82 | -0.65 |
| CG31345 (GeneID 41576) | DRSC14193 | 1.32 | 1.11 | 1.14 | -0.58 |
| CG31345 (GeneID 41576) | DRSC14847 | 1.18 | -0.24 | -0.31 | -0.77 |
| Pngl (GeneID 35527) | DRSC04914 | 0.09 | -0.2 | 0.6 | 0.24 |

A portion of the results above, for reference:
| gene knocked down | DRSC id | replicate 1, z-score of dpERK with insulin | replicate 2, z-score of dpERK with insulin | replicate 1, z-score of dpERK under basal conditions | replicate 1, z-score of ERK-YFP with insulin |
| --- | --- | --- | --- | --- | --- |
| CG15022 (GeneID 38549) | DRSC08476 | -2.81 | -1.55 | 0.73 | 1.55 |
| Trf2 (GeneID 31773) | DRSC18727 | 0.15 | -1.18 | -3.23 | 2.83 |
| CG34241 (GeneID 5740575) | DRSC09157 | 1.23 | 0.16 | 0.83 | -0.25 |
| Lipt1 (GeneID 36795) | DRSC05600 | -0.46 | 0.08 | -1.47 | 0.19 |
| Capr (GeneID 59172) | DRSC10346 | 2.34 | -0.1 | 0.76 | -0.69 |
| wupA (GeneID 32794) | DRSC20385 | 0.6 | 0.31 | -0.34 | -0.13 |
| wupA (GeneID 32794) | DRSC22547 | 0.41 | 1.01 | -0.84 | 0.36 |
| Ac78C (GeneID 40333) | DRSC11467 | -0.11 | 0.77 | 0.55 | 0.08 |

Continued.
| gene knocked down | DRSC id | replicate 1, z-score of dpERK with insulin | replicate 2, z-score of dpERK with insulin | replicate 1, z-score of dpERK under basal conditions | replicate 1, z-score of ERK-YFP with insulin |
| --- | --- | --- | --- | --- | --- |
| gzl (GeneID 40791) | DRSC12517 | 0.53 | 0.04 | 0.31 | -0.53 |
| Grip84 (GeneID 32946) | DRSC20248 | -1.13 | 0.73 | 2.22 | -0.18 |
| mnb (GeneID 32771) | DRSC20058 | -3.16 | -2.21 | -2.44 | -0.79 |
| mnb (GeneID 32771) | DRSC20353 | -0.44 | -0.01 | 2.41 | 0.74 |
| CG5897 (GeneID 39346) | DRSC10555 | 0.86 | 0.53 | 0.38 | -0.02 |
| halo (GeneID 33334) | DRSC00705 | 0.83 | 0.54 | 0.67 | -0.01 |
| P58IPK (GeneID 41161) | DRSC16404 | 0.06 | -0.45 | 1.18 | -0.07 |
| Rab21 (GeneID 3355163) | DRSC20968 | -0.53 | 0.46 | -0.3 | 0.87 |
| P32 (GeneID 37006) | DRSC06988 | 0.25 | 0.14 | 0.13 | -0.37 |
| mRpL24 (GeneID 33703) | DRSC03113 | 0.57 | 0.33 | 0.31 | -0.5 |
| CG31406 (GeneID 318715) | DRSC12777 | 0.49 | -0.34 | -0.71 | -0.57 |
| Obp73a (GeneID 2768955) | DRSC09907 | 0.95 | 0.78 | 0.27 | 0.37 |
| roq (GeneID 39818) | DRSC10227 | 0.02 | -0.21 | 1.2 | 0.17 |
| Hcs (GeneID 40659) | DRSC12070 | 0.62 | 0.88 | 1.32 | -0.19 |
| Hcs (GeneID 40659) | DRSC12256 | -0.22 | 0.85 | -0.26 | 0.89 |
| CG34353 (GeneID 5740590) | DRSC14493 | 0.64 | 0.05 | 0.69 | -0.21 |
| CG34353 (GeneID 5740590) | DRSC14517 | 0.49 | -0.25 | 0.58 | -0.51 |
| CG34353 (GeneID 5740590) | DRSC14563 | 0.15 | -0.11 | -0.07 | 0.21 |
| CG34353 (GeneID 5740590) | DRSC15837 | 0.05 | -0.1 | 0.43 | 0.17 |
| CG34353 (GeneID 5740590) | DRSC22429 | 0.73 | 0.37 | 0.81 | -1.72 |
